The values that follow come from PubChem BioAssay AID1487 (National Center for Advancing Translational Sciences (NCATS), 2009).

The experiment can be described thus: qHTS Assay for Modulators of Lamin A Splicing. Conditions: HeLa LMNA splicing GFP/RFP minigene ratio, 48 h. The procedure, abridged: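 S3 HeLa cells stably expressing lamin A-EGFP splicing minigene plus DsRed2, 600 cells/well, 48 h compound exposure at 37C. Laser-scanning cytometry; analysed as GFP (500-530 nm)/RFP (575-640 nm) total intensity ratio; 0.5% DMSO vehicle.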

Setting [1] is: measured here: RFP viability control channel.
Where [2] appears, read: measured here: GFP splicing reporter channel.

Molecules are shown by their SMILES. Values joined by “and” are separate entries in the source; they are usually repeats but may differ in a detail not shown here. Equal values may be shown once. This is one part of the list. The main result of the screen is listed elsewhere. These columns were measured beside it and carry no call. The list favours compounds with an active or inconclusive main result. The note in brackets gives the kind of curve behind each potency; many fits are weak.

With `CCOC(=O)c1cnc2ccc(F)cc2c1Nc1ccc2c(c1)OCCO2`, under setting [1], the AC50 is 35.5 µM [rising, single point].
`Cc1ccc(Oc2cc(NC(=O)CCCn3nc([N+](=O)[O-])cc3C)cc([N+](=O)[O-])c2)cc1`: the concentration at half-maximal activity (AC50) runs as follows: under setting [2], 35.5 µM [rising, single point]; under setting [1], 35.5 µM [rising, single point].
As to `CN(C)C(=O)c1ccc(-c2ccc3ncnc(N(C)Cc4ccco4)c3c2)cc1`, the AC50 was 12.6 µM [falling, partial curve] under setting [2] and 0.891 µM [falling, partial curve] under setting [1].
Take `Cc1ccc2cc(CN(CC3CCCO3)C(=S)NCc3ccco3)c(=O)[nH]c2c1C` (configuration not stated): the AC50 under setting [1] is 12.6 µM [rising, partial curve].
As to `O=C(NCC1CCCO1)c1ccccc1-c1nc(-c2ccc(F)cc2)no1` (configuration not stated), the AC50 under setting [1] is 0.708 µM [rising, full curve, poor fit].
`CCOC(=O)c1ccc(NC(=O)CN2C(=O)NC3(CCCCCC3)C2=O)cc1`: the AC50 under setting [1] was 0.224 µM [falling, full curve, poor fit].
On the same count and under the same terms, in the case of `CCOC(=O)c1c(C2CC2)csc1NC(=O)COC(=O)c1ccc[n+]([O-])c1` it was 12.6 µM [rising, partial curve, poor fit].
For the compound `C[C@@H](C(=O)NCCc1c[nH]c2ccccc12)[C@@H]1C[C@@]1(C)[C@@H](NC(=O)OCc1ccccc1)c1ccccc1`, the AC50 was 10 µM [rising, single point] under setting [2] and 12.6 µM [rising, partial curve] under setting [1].
`Cc1cc(C)nc(NNC2=CC(=O)CC(C)(C)C2)n1`: the AC50 under setting [1] is 5.62 µM [rising, partial curve].
Take `COc1ccc(-c2nc(NC(=O)c3ccc(OCC(=O)N4CCOCC4)c(OC)c3)sc2C)cc1`: the concentration at half-maximal activity (AC50) under setting [1] is 15.8 µM [rising, single point].
With `CS(=O)(=O)N1CCc2cc(S(=O)(=O)N3CCN(Cc4ccc5c(c4)OCO5)CC3)ccc21`, the AC50 is 12.6 µM [rising, partial curve] under setting [2] and 15.8 µM [rising, single point] under setting [1].
For `COc1cc(/C=C(\C#N)c2[nH]nc(N)c2C#N)cc(OC)c1O`, the AC50 under setting [1] was 35.5 µM [rising, single point].
For the compound `Clc1ccc(-c2csc(=Nc3cccnc3)n2CCCn2ccnc2)cc1Cl`, the AC50 was 11.2 µM [rising, partial curve] under setting [2] and 25.1 µM [rising, single point] under setting [1].
Regarding `COc1cc(C(=O)NC(=S)Nc2nccs2)cc(OC)c1OC`, the AC50 under setting [1] is 22.4 µM [falling, partial curve, poor fit].
Consider `COc1ccc(N2CCN(C(=O)CCS(=O)(=O)c3cc4c(cc3Cl)NC(=O)CO4)CC2)cc1`, for which the AC50 under setting [2] is 35.5 µM [falling, single point] and the AC50 under setting [1] is 35.5 µM [falling, single point].
Take `CCC(=O)Nc1cccc(NC(=S)NC(=O)c2cccs2)c1`: the AC50 was 17.8 µM [rising, partial curve] under setting [2] and 20 µM [rising, partial curve, poor fit] under setting [1].
In the case of `CCOC(=O)c1ccccc1NC(=O)CSc1nc2ncccc2[nH]1`, under setting [1], the AC50 was 8.91 µM [falling, partial curve].
With `CC(C)Cn1c(N)c(C(=O)COC(=O)c2ccc(F)cc2)c(=O)n(C)c1=O`, the AC50 under setting [1] is 5.01 µM [rising, full curve, poor fit].
As for `Cc1cc(C(=O)Cn2nc(C(=O)O)c3ccccc3c2=O)c(C)n1-c1ccc(F)cc1`, the AC50 under setting [1] was 2.82 µM [rising, partial curve, poor fit].
With `CN1CCN(CC(=O)N2c3ccccc3C(C)(c3ccccc3)CC2(C)C)CC1` (configuration not stated), the half-maximal activity concentration (AC50) under setting [1] is 20 µM [rising, partial curve].
`CCOC(=O)c1sc(NC(=O)CCN2CCN(CC)CC2)c(C(=O)OCC)c1C`: the concentration at half-maximal activity (AC50) under setting [2] is 17.8 µM [falling, single point].
Take `O=C(CN1CCC(c2nc3ccccc3s2)CC1)NCc1cccs1`: the AC50 reads like this: under setting [2], 11.2 µM [rising, single point]; under setting [1], 8.91 µM [rising, partial curve].
On to `CCCCC(CC)COC(=O)C(C#N)=C(c1ccccc1)c1ccccc1` (configuration not stated), for which, under setting [1], the AC50 is 5.01 µM [rising, partial curve, poor fit].
For `Cc1ccc(/C=c2\sc3nc(-c4cccnc4)nn3c2=O)cc1`, the AC50 by setting is: under setting [2], 35.5 µM [falling, single point]; under setting [1], 20 µM [falling, single point].
Turning to `Nc1c2c(nc3ccccc13)CCCC2`, the AC50 runs as follows: under setting [2], 63.1 nM [falling, full curve, poor fit] and 31.6 µM [rising, single point]; under setting [1], 14.1 µM [rising, single point].
For the compound `NS(=O)(=O)c1ccc(NC(=O)COC(=O)CCc2ccc(S(=O)(=O)N3CCOCC3)cc2)cc1`, under setting [1], the AC50 is 0.0316 µM [falling, full curve].
On to `COc1ccc(C(C)N2CC34C=CC(O3)C(C(=O)OCC(C)C)C4C2=O)cc1` (configuration not stated), for which the AC50 under setting [1] was 0.0891 µM [falling, full curve, poor fit].
Regarding `Nc1nn(-c2ccccc2)c(N)c1N=Nc1ccccc1F`, the AC50 was 12.6 µM [rising, single point] under setting [2] and 31.6 µM [rising, single point] under setting [1].
`CCCCn1nnc(N(C(=O)c2cccs2)C(=O)c2cccs2)n1`: under setting [1], the AC50 is 25.1 µM [falling, single point].
Take `c1csc(CNc2ncnc3ccc(-c4ccc5c(c4)OCO5)cc23)c1`: under setting [1], the half-maximal activity concentration (AC50) is 14.1 µM [falling, single point].
On to `CCCc1nc2ccccc2c(C(=O)OCC(=O)N2CCc3ccccc32)c1CC`, for which the half-maximal activity concentration (AC50) is, setting by setting: under setting [2], 35.5 µM [rising, single point]; under setting [1], 22.4 µM [rising, single point].
For the compound `CCOc1ccc(-n2c(C)cc(C(=O)CCl)c2C)cc1`, the AC50 under setting [1] is 22.4 µM [falling, single point].
On to `Cc1nnc(N/N=C/c2cccc(OCc3ccc(Cl)c(Cl)c3)c2)n1N`, for which the AC50 reads like this: under setting [2], 15.8 µM [rising, single point]; under setting [1], 25.1 µM [rising, single point].
For the compound `Cc1cc(C(=O)N/N=C/c2cc(Br)ccc2OC(=O)c2ccccc2)n[nH]1`, the AC50 under setting [1] is 3.98 µM [rising, full curve].
